The source of these data is publication PMC4559392.

Amino acid sequences for entries named in this document (tags omitted). A change or cut given only in a name is not applied to a line headed by its entry.
UniProt P18431: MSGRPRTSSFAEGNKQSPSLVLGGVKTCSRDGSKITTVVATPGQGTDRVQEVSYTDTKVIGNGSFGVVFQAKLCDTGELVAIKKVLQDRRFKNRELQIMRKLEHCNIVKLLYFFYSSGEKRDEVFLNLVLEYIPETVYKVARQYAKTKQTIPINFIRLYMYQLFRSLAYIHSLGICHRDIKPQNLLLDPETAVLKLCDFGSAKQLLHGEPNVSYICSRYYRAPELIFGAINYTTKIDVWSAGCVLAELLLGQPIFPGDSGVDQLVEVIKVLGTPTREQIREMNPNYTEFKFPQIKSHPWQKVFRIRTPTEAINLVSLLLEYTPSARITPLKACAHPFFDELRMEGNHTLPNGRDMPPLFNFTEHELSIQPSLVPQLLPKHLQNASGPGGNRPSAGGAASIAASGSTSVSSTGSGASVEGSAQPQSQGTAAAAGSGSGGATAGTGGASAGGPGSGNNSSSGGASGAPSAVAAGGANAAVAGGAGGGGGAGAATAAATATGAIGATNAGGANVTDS
UniProt P51592: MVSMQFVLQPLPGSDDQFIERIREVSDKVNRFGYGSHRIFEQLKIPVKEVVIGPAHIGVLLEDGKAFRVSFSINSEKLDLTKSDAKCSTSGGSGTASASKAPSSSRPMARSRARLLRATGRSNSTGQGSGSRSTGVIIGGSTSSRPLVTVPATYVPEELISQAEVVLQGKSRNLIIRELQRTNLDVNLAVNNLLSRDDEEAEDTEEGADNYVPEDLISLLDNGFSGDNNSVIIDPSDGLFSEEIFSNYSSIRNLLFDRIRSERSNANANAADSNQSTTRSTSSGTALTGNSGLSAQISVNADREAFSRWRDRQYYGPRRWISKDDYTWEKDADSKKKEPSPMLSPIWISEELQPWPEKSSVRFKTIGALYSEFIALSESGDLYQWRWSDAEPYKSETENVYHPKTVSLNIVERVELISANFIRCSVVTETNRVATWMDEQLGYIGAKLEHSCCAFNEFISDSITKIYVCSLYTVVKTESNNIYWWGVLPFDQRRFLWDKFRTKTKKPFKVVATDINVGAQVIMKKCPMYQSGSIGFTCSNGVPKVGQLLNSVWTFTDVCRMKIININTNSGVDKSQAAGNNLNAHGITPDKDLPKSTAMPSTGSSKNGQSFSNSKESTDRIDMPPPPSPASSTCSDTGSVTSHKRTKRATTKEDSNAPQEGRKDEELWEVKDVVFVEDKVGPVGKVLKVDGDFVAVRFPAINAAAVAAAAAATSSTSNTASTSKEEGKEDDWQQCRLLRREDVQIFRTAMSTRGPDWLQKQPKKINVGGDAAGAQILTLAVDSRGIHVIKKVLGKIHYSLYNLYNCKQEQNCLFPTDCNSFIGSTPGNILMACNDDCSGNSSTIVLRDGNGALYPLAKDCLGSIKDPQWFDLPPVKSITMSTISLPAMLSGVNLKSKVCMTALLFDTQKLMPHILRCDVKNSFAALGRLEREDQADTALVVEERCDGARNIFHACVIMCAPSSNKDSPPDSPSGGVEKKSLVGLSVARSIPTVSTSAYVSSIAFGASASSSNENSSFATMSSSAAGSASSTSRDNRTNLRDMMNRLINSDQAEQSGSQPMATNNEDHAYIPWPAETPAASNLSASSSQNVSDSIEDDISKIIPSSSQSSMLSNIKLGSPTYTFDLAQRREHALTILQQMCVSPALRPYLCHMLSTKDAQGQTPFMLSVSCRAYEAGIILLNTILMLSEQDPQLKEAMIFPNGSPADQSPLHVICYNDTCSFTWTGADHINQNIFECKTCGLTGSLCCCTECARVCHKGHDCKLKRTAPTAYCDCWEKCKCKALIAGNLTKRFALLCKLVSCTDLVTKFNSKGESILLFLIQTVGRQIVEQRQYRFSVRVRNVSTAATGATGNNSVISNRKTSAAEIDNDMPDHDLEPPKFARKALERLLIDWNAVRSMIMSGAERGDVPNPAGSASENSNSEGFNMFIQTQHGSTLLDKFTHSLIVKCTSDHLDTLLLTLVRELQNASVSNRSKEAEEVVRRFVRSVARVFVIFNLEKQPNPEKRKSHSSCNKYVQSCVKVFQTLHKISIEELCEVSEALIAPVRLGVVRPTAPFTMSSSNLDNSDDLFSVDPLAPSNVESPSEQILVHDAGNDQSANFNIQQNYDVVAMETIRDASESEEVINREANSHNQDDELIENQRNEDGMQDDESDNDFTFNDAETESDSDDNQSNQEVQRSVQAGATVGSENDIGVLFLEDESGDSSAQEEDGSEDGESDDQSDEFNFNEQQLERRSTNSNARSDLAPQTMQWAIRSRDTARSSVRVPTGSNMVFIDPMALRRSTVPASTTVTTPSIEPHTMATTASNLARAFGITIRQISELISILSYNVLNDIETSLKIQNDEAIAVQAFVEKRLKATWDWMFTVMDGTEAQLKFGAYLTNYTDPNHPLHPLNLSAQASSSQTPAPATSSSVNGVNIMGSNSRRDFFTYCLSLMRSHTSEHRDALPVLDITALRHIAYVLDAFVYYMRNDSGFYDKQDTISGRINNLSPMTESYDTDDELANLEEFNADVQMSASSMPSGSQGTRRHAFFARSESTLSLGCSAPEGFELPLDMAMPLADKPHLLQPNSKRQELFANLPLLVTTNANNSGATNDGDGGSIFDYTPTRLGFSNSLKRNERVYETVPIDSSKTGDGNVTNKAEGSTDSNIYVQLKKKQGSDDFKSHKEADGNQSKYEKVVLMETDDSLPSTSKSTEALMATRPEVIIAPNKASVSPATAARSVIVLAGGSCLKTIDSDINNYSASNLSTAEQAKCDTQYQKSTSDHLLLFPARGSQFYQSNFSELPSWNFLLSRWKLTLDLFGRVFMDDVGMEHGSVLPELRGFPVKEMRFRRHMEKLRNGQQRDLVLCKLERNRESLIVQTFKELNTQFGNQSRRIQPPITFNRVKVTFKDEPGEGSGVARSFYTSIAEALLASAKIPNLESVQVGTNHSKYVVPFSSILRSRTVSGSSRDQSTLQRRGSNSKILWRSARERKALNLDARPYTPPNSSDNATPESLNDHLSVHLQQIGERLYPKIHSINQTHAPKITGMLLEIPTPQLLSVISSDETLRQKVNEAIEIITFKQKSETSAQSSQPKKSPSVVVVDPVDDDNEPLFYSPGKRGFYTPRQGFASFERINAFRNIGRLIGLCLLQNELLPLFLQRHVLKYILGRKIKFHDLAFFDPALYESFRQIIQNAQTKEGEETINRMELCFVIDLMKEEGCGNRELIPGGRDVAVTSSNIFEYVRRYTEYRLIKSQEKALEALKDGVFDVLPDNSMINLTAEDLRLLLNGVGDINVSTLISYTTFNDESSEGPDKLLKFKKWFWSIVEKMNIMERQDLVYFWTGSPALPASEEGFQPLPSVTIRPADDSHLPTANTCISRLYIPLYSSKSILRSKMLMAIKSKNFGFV
UniProt P19538: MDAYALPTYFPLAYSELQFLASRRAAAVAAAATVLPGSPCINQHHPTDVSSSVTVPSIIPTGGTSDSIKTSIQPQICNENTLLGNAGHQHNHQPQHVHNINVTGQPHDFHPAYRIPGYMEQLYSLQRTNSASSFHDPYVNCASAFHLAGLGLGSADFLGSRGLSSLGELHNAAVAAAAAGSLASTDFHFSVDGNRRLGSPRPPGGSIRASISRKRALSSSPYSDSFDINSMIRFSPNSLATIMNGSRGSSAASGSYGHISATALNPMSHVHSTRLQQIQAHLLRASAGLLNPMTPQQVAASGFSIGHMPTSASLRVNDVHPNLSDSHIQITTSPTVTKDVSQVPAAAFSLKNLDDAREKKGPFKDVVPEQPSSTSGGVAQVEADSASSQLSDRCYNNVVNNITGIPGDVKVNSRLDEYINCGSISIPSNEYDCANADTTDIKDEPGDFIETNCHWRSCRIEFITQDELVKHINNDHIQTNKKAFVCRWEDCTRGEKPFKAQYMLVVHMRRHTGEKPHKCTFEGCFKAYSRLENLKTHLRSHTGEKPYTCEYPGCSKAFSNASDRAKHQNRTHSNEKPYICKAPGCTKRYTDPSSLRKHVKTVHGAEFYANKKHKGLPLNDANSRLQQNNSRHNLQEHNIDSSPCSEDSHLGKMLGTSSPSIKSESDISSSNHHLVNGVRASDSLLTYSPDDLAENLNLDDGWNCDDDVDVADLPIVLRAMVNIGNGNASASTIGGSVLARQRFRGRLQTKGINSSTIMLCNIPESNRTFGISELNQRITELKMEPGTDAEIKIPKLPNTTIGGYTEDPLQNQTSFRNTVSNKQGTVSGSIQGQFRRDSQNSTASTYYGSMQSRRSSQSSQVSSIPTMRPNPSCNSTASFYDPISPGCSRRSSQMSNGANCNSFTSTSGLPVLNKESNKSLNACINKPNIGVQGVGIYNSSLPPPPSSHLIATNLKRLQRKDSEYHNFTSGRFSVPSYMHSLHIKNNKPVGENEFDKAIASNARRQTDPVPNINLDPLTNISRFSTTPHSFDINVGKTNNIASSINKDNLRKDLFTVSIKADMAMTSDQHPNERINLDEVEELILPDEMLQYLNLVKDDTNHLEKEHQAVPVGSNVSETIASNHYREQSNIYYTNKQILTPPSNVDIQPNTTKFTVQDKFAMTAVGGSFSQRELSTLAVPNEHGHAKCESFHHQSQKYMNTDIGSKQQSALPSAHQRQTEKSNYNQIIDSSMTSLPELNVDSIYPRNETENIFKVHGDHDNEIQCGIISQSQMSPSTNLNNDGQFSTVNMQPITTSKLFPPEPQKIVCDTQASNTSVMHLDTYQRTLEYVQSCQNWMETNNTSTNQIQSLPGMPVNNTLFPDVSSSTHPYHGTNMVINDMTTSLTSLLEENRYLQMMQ
UniProt P10070: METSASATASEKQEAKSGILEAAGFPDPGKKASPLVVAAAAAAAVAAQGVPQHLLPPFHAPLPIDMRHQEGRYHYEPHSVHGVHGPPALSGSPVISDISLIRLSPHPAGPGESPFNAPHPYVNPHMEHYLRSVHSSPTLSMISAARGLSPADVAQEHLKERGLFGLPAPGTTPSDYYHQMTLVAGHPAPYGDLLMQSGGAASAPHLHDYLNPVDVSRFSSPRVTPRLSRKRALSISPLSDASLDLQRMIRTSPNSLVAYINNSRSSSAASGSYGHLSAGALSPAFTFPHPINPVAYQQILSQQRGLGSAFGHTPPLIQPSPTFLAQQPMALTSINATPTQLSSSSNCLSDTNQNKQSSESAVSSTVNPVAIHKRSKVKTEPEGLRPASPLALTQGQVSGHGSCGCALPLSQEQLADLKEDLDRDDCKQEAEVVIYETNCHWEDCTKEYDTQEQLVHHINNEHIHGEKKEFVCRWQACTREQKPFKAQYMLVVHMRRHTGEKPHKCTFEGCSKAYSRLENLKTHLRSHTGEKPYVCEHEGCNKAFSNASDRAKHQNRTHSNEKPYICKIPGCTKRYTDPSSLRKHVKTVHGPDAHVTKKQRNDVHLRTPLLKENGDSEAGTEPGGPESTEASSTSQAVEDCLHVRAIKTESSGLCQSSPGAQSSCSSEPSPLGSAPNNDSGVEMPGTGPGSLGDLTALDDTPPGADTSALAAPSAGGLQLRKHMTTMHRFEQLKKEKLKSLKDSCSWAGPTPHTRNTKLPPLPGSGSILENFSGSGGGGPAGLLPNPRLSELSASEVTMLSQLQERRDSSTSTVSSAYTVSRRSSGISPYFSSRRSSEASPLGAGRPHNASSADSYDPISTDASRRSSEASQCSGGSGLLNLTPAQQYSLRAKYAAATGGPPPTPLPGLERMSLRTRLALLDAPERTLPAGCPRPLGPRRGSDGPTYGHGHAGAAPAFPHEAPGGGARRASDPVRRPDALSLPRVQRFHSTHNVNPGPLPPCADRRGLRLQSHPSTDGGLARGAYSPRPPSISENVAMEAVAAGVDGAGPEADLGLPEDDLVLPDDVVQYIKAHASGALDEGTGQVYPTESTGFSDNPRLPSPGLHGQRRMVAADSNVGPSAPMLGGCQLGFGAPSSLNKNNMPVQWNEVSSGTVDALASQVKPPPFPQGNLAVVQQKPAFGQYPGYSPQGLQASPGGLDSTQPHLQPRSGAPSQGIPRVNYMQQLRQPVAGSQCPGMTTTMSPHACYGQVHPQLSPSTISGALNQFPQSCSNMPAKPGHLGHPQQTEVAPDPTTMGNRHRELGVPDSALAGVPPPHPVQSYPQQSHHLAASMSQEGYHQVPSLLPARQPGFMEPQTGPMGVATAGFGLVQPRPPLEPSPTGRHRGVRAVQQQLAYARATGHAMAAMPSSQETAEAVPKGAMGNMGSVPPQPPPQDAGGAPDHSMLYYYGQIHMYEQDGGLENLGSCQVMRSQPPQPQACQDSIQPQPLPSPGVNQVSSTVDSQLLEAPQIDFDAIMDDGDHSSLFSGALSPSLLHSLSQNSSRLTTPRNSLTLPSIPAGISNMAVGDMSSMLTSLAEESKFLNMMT

Results are given in words; binding and its absence hold for the method and conditions named. In cells and extracts the contact can be indirect. Some entries that bind do so weakly or less than the wild type.

The target in assay [1] is Sgg-FLAG (Shaggy, the Drosophila GSK3β homologue) (Drosophila melanogaster) (UniProt P18431). Description: co-IP; S2 cells co-transfected with hyd (mutant) and sgg-FLAG constructs; FLAG-affinity purified complexes analysed by Western blot. Background: In western blotting, separated proteins are transferred to a membrane and probed.
The target of assay [2] is Hyperplastic Discs (Hyd), endogenous (Drosophila melanogaster (endogenous in CL8 cells)) (UniProt P51592). Description: co-IP; endogenous proteins in Drosophila CL8 cell lysate (Triton lysis buffer: 50mM Tris pH 7.5, 100mM NaCl, 2mM EDTA, 1% Triton X-100); IP with Hyd antibody (M19) or control IgG, 4°C; Western blot for Ci^155.
Assay [3] concerns the target Haemagglutinin-Streptavidin-(HS)-EDD (human) (UniProt O95071). In words: pull-down; HEK293 cells transfected with HS-EDD and Myc-GLI2; Streptactin-mediated purification of HS-EDD from the lysate; Western blot for Myc-GLI2.
Assay [4] addresses HS-Hyd (HA-Strep tagged Hyperplastic Discs, wild type) (Drosophila melanogaster) (UniProt P51592). In words: pull-down; HS-Hyd purified from transfected S2 cells on Streptactin-affinity resin; control or HS-Hyd-loaded beads incubated with Sgg-FLAG expressing S2 cell lysate, washed, blotted for Sgg-FLAG; only the target purified.

On to “Hyd UBR^mt (C1272A+C1274A) (from UniProt P51592 1-2885)”, for which, in assay [1], the binding result was “binds”.

Regarding “Cubitus interruptus, full-length 155kDa form (Ci^155), endogenous (from UniProt P19538 1-1397)”, the binding result in assay [2] is “binds”. As for “Hyd HECT^mt (C2854A) (from UniProt P51592 1-2885)”, the binding result in assay [1] is reported as “binds”. For the substance “full-length Myc-tagged GLI2 (from UniProt P10070 1-1586)”, the binding entry in assay [3] is on record as “binds”. On to “HS-Hyd (HA-Strep tagged Hyperplastic Discs, wild type) (from UniProt P51592 1-2885)”, for which the binding entry in assay [1] is “binds”. For “Sgg-FLAG (Shaggy, the Drosophila GSK3β homologue) (from UniProt P18431 1-514)”, the binding result in assay [4] was “binds”.
